Assay results: PMC7819943, “Rice protein-binding microarrays: a tool to detect cis-acting elements near promoter regions in rice”
Some of the results follow.

Sequences of proteins named here, by UniProt entry; tags and fusion partners are left off.
UniProt Q0JBA9, entry or part of it: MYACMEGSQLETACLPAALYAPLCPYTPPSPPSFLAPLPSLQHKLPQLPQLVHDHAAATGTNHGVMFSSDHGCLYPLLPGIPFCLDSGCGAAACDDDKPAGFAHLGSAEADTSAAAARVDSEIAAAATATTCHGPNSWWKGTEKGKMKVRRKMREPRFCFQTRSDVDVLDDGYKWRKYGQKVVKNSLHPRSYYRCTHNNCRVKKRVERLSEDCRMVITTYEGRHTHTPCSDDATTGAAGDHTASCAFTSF

Target: OsWRKY34 (Oryza sativa, UniProt Q0JBA9 1-250)
Assay: protein-binding microarray (RPBM); PBS, 2% BSA, 51.3 ng/ul salmon testes DNA, 50 uM zinc acetate, 200 nM TF, 25 C, 1 h; high values mean tight binding
Conditions: protein: recombinant; tags: N-terminal polyhistidine and DsRed monomer fusion (pET32a); label: CyDye5-dUTP incorporated in the synthesized complementary strand; 3' TTTTT single-stranded linker to array surface; dsDNA, one strand shown
Summary of the method: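 The binding signal is fluorescence intensity per array feature (arbitrary units). Readings came from an Axon 4000B scanner after a washed, 2% BSA-blocked, double-stranded custom Agilent array had been incubated for 1 h at 25 °C with 200 nM protein and 50 µM zinc acetate. The protein was a Ni–NTA-purified transcription factor fused N-terminally to polyhistidine and DsRed, expressed in E. coli BL21-CodonPlus.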

Row | Sequence | binding signal
1 | GTACCAAATGTTCCTTACTTTCTACTACATCCGTCTCAAACGGAGTCACCTAGTGCAG | 8260 fluorescence intensity (a.u.)
2 | CGTCGTAGGTAGTGTTCCCTTCAAACTTTCAACTTTTCCACGGAGTCACCTAGTGCAG | 8590 fluorescence intensity (a.u.)
3 | CAATGGTGGTTTATCTTAAAGAGTACTACATCCGTCACAACGGAGTCACCTAGTGCAG | 8630 fluorescence intensity (a.u.)
4 | AATAGCTCACCATTCAGTTTCAATAGTTTATGTTAATGTTCGGAGTCACCTAGTGCAG | 8140 fluorescence intensity (a.u.)
5 | GCCACAGCACTTACCCTGTCATCCTTGCCCTGCTATCATTCGGAGTCACCTAGTGCAG | 8230 fluorescence intensity (a.u.)
6 | GAACCTATACATTCGCCACACTCCCCTGCTTCGCTTGCTTCGGAGTCACCTAGTGCAG | 8670 fluorescence intensity (a.u.)
7 | CTCTCTCTCTCTCTCTCTCTCTCTTCCCACTCTCTCCTGCCGGAGTCACCTAGTGCAG | 9220 fluorescence intensity (a.u.)
8 | GCCGCTCACAGCCGTCTTCGCTTGCCCGCCGCCATCGCCACGGAGTCACCTAGTGCAG | 17500 fluorescence intensity (a.u.)
9 | CCTCCGCCCTGAGCCCCGGCAGCTTTGTTTTGGCCTCTCCCGGAGTCACCTAGTGCAG | 8620 fluorescence intensity (a.u.)
10 | TGTGATGGACTTTTGGCATTGTGATTTGTGCAATTGGAACCGGAGTCACCTAGTGCAG | 8590 fluorescence intensity (a.u.)
11 | GTCTCCACCGCGCCAATCCGCCACCGCCGTTAGCTTCGCCCGGAGTCACCTAGTGCAG | 9280 fluorescence intensity (a.u.)
12 | CGCGGTGTGCCGGGGAGGGAGGTGGTGGTTGAGGTTGAGGCGGAGTCACCTAGTGCAG | 11700 fluorescence intensity (a.u.)
13 | CACACAAAATAGACTTATTCCTTTAATTTCCTCGAGCAACCGGAGTCACCTAGTGCAG | 9440 fluorescence intensity (a.u.)
14 | CCTAGCTACCTCACACACAGCCCACACCACCTCTCATCGACGGAGTCACCTAGTGCAG | 9050 fluorescence intensity (a.u.)
15 | GACATATAGGCCCCACGTAATTTTTTTAATTTTTTTTCTGCGGAGTCACCTAGTGCAG | 8310 fluorescence intensity (a.u.)
16 | GGCGAGGACAACCGATCTTCGGTCTCCTACTTCTTCTCTTCGGAGTCACCTAGTGCAG | 8100 fluorescence intensity (a.u.)
17 | CAAATTTCGCAAGGGCGATTTTTGGGTGGGTAGGTATAAACGGAGTCACCTAGTGCAG | 10400 fluorescence intensity (a.u.)
18 | GATTGATCTCATTATTTCCTTCCCTTCAATTTCTTAATTCCGGAGTCACCTAGTGCAG | 9810 fluorescence intensity (a.u.)
19 | CTAACCAATCATCAAATTGTCACTGAAGTCCAAGCTACAACGGAGTCACCTAGTGCAG | 8150 fluorescence intensity (a.u.)
20 | TGGATTGATCACCAGATGGAATATCCCGTGTACGCTTTCCCGGAGTCACCTAGTGCAG | 8060 fluorescence intensity (a.u.)
21 | CCATGTCGCCGCCGCCGACCACCCGGACGCCCTCCGCGCGCGGAGTCACCTAGTGCAG | 11500 fluorescence intensity (a.u.)

Row | Sequence | binding signal
22 | AAATCCTATGTTTTTCTTATTCTTTTATTTTTTCAACCCTCGGAGTCACCTAGTGCAG | 8280 fluorescence intensity (a.u.)
23 | CCGCTGCTTGGTCTCGTTTGGTTCCATCCGCTATGGCAGGCGGAGTCACCTAGTGCAG | 8710 fluorescence intensity (a.u.)
24 | TTGGGGCTAGTGTATTAGAATTAGTATAGATGTGATATATCGGAGTCACCTAGTGCAG | 8060 fluorescence intensity (a.u.)
25 | ACTTAATATTGGCCCACTTAACTAGTCGGACACATTGTCCCGGAGTCACCTAGTGCAG | 8320 fluorescence intensity (a.u.)
26 | GTCGTCACTCACTCCACCGTACTACACTCGCCTTCTTCTCCGGAGTCACCTAGTGCAG | 9320 fluorescence intensity (a.u.)
27 | GTGGGCAGATTTAGTTTTAATGGGTGTGGGTACGGAGAGTCGGAGTCACCTAGTGCAG | 8900 fluorescence intensity (a.u.)
28 | CTTCTCTACTTTGACCATACGGGTTTCGCATCAAACAAAACGGAGTCACCTAGTGCAG | 12200 fluorescence intensity (a.u.)
29 | ATAGGTGTGCTGATATCTCTATGTTTGGCTGGGAATCGGACGGAGTCACCTAGTGCAG | 13800 fluorescence intensity (a.u.)
30 | TTATCTAAATGTCCGGATTGCCCTTTCTCTTTCCTTCTTTCGGAGTCACCTAGTGCAG | 10200 fluorescence intensity (a.u.)
31 | TGGATCATTGCTTATCTTTGTTGTTCTTCTTTCAGTATATCGGAGTCACCTAGTGCAG | 11200 fluorescence intensity (a.u.)
32 | CATGCCAATCATAAATAATGACATATTGGTTGACTTTTTGCGGAGTCACCTAGTGCAG | 11000 fluorescence intensity (a.u.)
33 | AGGGTAAGAGGAGGAGGAGGAGGGGTAGGCGAGGGAGATGCGGAGTCACCTAGTGCAG | 8490 fluorescence intensity (a.u.)
34 | CAGCTTGCCGCTGTTTTTTCCTTTTCTGTTGGTATATATTCGGAGTCACCTAGTGCAG | 10800 fluorescence intensity (a.u.)
35 | GCACACCATCAACCCAGCCTCGTCACGGAGCCATCGACGACGGAGTCACCTAGTGCAG | 8190 fluorescence intensity (a.u.)
36 | GAGCTTTTGATCTAGTCGGGTAGTCCTCTTGGGTGTTTGACGGAGTCACCTAGTGCAG | 8420 fluorescence intensity (a.u.)
37 | TAGTGTTGCTTGCAGTCTTGTTTTGTCATTCGTGCTAATCCGGAGTCACCTAGTGCAG | 9070 fluorescence intensity (a.u.)
38 | AACACGTCCGCGCCTCCGCGATTTCTTTTCTCCTATTAACCGGAGTCACCTAGTGCAG | 8520 fluorescence intensity (a.u.)
39 | ATTTTAATTAATCTCGTGTTGGGTTCTTATATGGTTTTTCCGGAGTCACCTAGTGCAG | 8350 fluorescence intensity (a.u.)
40 | ACCCACCACTCCGTCCGCACGCCACCACTTCGTCCGCACGCGGAGTCACCTAGTGCAG | 9560 fluorescence intensity (a.u.)
41 | CATTTTTTGCCACCATTAGTTTACCGGCCGTAAGCATGTCCGGAGTCACCTAGTGCAG | 9590 fluorescence intensity (a.u.)
42 | ATGTACTTTTTTATTTTTTTTGCTGACTATGATGCCACGTCGGAGTCACCTAGTGCAG | 9690 fluorescence intensity (a.u.)

Shown field by field: part of the list above
AACACGTCCGCGCCTCCGCGATTTCTTTTCTCCTATTAACCGGAGTCACCTAGTGCAG
  binding signal = 8520 fluorescence intensity (a.u.)
ATTTTAATTAATCTCGTGTTGGGTTCTTATATGGTTTTTCCGGAGTCACCTAGTGCAG
  binding signal = 8350 fluorescence intensity (a.u.)
